These are yes or no findings as the source states them, for the method shown. In cells and extracts the contact can be indirect. Some entries that bind do so weakly or less than the wild type. Where a sequence is shown, tags or fusion partners need not be part of it.
Target: T1, Prp45-HA (full-length Prp45) (S. cerevisiae) (UniProt P28004)
T1 sequence: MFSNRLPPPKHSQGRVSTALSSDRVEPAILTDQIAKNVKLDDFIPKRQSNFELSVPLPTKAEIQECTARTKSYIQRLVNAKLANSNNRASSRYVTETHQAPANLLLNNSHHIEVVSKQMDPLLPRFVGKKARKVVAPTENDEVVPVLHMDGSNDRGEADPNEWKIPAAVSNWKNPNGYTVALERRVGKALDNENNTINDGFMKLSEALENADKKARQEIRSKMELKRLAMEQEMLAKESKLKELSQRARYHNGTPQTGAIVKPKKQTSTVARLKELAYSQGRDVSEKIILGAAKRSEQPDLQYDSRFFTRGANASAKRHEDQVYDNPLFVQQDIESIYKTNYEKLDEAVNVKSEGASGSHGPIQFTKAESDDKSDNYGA
Assay: co-IP

B1: Lge1-FLAG (protein, UniProt Q02796 1-332)
chain: MSGYTGNNYSRYSSTPPRQRGGYHHARRSRGGAGGSYYRGGNASYGARYNSDYEQPPQEGDLRQTGAYYRNGYTDTRPYYSANSRHYQAQPSPRYNNGTNSYHLPQRGNSQDTNGRTTSASQEDNDEKRVKSRYRNMQADHPRQQPMSVGSTSSRNGSSGNSSTSSTSNGLPPPPSVSSITNNRSYHSSAYPYSSSHTYNNYHHRETPPPPPSNGYYAKGYPVHVPENRSNSDGSSSSVVKKKRILDMKDSPFIYLTDFDKNVKKTNNTESECEKAREVFKESDSIDSALEELNLKINSNELELRLLNNQCDKHALNIQLTQEKLDSLLLMQ
B1 was tested, and the binding was “binds”.

Reference: publication doi:10.1101/2025.06.18.660225
